# These are yes or no findings as the source states them, for the method shown. Binding seen in cells or lysates may run through a third protein. A yes stands for co-enrichment or nearness to the bait. Other partners may have been found. Where a sequence is shown, tags or fusion partners need not be part of it.
# Chains of the proteins cited; added tags and fusions are not shown.
# UniProt O14647: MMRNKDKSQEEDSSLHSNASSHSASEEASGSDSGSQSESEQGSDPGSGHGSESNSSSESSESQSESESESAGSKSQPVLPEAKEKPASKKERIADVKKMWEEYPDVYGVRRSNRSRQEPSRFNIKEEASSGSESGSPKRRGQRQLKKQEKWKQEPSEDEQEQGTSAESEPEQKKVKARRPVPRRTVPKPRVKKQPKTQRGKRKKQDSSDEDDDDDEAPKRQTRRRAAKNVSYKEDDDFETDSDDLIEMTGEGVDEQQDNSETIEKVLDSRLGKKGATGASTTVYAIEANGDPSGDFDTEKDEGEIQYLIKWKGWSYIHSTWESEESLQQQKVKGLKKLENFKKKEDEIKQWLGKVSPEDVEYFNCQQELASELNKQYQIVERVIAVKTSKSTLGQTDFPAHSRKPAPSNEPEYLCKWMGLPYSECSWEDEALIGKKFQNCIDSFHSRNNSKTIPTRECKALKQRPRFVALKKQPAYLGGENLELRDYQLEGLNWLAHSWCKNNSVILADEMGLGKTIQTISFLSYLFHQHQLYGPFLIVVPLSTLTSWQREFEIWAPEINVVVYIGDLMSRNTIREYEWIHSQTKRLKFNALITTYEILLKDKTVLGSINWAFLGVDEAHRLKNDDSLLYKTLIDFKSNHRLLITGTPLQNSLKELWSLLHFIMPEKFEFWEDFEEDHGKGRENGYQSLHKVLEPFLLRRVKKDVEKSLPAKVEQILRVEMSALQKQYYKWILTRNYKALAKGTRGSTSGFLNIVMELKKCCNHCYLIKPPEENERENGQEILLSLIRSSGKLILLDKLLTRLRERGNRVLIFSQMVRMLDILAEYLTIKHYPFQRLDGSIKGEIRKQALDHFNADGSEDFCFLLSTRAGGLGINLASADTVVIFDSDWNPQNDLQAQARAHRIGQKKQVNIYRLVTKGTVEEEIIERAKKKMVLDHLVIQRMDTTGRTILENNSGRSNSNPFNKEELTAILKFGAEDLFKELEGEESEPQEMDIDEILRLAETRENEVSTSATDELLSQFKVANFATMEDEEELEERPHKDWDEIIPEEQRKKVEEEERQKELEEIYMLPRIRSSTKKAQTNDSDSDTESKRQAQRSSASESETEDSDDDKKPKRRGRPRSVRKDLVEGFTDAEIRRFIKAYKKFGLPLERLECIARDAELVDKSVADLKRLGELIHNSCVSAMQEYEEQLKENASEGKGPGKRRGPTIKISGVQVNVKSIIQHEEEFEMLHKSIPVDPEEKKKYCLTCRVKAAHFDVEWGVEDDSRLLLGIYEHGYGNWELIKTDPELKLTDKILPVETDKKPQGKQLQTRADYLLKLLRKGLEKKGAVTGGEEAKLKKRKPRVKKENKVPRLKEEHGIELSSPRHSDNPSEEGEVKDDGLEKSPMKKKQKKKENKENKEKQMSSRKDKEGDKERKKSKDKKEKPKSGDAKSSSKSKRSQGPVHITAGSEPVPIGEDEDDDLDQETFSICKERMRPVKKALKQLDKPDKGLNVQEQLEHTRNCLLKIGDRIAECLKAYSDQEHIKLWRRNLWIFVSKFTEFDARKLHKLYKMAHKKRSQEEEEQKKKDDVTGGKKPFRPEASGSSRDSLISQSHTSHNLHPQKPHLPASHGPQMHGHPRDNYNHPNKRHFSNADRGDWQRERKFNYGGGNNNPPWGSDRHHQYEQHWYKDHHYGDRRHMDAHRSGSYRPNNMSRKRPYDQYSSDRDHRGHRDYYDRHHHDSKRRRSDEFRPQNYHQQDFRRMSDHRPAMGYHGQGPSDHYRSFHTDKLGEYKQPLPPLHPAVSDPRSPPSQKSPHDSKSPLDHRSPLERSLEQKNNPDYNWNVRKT
# UniProt P49760: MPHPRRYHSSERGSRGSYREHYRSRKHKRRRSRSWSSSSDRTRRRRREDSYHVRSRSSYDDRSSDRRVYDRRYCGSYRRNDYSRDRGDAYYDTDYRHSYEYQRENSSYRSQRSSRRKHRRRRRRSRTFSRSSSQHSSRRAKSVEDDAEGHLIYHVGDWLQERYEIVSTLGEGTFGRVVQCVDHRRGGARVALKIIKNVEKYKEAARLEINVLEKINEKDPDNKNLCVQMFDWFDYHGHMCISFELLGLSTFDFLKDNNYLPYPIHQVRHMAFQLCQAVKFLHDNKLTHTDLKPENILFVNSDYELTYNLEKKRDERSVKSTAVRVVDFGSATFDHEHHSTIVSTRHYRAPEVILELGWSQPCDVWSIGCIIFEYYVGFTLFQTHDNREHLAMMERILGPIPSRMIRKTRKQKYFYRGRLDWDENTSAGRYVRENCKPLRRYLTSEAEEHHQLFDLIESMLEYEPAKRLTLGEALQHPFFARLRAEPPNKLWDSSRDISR
# UniProt P49761: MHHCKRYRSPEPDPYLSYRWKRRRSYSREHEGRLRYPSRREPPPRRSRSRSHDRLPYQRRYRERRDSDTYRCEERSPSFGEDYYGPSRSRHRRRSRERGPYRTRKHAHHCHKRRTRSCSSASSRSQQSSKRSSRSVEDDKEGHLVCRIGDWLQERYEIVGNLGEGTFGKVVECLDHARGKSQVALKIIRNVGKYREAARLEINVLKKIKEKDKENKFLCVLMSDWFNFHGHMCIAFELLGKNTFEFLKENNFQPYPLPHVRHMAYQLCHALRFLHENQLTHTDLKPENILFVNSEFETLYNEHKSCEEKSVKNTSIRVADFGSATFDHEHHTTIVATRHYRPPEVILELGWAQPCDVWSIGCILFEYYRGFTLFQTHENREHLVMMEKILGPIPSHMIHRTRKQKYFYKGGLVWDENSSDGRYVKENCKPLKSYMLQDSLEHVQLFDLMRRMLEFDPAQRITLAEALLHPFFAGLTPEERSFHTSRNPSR
# UniProt Q13123: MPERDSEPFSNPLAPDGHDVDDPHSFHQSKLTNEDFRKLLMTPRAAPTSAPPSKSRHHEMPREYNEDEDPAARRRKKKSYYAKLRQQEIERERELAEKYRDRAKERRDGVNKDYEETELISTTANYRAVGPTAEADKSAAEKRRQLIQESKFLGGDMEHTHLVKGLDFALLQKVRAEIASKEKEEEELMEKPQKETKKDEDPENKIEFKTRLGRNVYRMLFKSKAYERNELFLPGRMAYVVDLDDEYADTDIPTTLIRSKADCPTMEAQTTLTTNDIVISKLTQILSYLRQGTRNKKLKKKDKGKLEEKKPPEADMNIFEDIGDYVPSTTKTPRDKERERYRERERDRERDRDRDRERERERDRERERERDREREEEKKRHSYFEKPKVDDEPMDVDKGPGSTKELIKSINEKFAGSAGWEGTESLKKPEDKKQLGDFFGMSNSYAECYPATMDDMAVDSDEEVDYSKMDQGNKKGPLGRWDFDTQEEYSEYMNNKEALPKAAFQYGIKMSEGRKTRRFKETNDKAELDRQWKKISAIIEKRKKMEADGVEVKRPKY
# UniProt P55081: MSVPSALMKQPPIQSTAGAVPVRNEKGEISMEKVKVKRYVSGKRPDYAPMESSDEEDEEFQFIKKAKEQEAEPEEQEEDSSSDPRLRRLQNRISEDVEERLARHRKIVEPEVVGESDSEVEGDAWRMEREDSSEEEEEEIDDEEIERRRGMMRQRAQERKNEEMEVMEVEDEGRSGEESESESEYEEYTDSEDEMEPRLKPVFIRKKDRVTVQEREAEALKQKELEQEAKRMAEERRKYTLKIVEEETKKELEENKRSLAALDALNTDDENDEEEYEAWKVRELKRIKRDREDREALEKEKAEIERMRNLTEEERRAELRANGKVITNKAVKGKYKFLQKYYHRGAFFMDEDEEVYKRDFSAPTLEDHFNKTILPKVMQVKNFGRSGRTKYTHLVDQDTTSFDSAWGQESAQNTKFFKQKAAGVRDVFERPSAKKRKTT
# UniProt Q9NWH9: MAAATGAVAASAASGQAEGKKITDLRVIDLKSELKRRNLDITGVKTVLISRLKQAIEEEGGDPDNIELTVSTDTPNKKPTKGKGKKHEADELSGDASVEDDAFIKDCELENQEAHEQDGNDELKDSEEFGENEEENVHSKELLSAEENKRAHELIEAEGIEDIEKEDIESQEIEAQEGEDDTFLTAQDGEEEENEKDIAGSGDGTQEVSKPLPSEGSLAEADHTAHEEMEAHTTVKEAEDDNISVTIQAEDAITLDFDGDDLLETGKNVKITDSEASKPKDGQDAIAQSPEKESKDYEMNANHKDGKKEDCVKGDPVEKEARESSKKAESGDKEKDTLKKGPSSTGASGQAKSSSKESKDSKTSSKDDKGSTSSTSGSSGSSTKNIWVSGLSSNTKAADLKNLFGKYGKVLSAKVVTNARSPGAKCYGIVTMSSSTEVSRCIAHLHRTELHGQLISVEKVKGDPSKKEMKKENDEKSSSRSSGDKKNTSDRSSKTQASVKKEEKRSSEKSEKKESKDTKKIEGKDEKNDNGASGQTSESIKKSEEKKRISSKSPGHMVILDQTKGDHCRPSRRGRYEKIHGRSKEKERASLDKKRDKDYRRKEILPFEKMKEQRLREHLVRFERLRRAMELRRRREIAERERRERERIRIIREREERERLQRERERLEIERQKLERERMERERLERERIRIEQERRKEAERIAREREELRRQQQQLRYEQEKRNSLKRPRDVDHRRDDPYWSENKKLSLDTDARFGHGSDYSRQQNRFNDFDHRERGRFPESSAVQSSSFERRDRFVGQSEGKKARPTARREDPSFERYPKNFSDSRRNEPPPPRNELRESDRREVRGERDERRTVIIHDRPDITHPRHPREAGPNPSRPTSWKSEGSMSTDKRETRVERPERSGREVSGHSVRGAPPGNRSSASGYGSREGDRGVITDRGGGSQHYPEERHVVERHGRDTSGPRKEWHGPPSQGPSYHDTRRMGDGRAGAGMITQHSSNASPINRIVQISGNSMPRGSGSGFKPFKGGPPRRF
# UniProt Q96SB4: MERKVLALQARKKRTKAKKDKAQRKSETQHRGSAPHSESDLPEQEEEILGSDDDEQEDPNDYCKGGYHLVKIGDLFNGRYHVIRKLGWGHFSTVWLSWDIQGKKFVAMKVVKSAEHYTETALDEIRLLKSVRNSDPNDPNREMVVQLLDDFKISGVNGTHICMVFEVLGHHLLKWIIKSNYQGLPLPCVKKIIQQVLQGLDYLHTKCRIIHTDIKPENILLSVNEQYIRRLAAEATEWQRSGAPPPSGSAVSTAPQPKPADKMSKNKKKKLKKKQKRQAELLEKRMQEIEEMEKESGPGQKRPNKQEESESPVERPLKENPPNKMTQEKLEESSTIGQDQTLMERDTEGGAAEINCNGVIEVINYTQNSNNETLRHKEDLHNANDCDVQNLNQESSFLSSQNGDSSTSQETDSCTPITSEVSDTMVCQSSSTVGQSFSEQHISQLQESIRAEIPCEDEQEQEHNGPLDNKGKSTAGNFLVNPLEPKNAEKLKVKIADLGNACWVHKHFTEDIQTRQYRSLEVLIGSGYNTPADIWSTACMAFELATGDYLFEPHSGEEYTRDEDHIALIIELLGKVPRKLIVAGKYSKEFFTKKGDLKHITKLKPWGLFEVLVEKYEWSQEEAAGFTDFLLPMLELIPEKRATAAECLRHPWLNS
# UniProt Q96NC0: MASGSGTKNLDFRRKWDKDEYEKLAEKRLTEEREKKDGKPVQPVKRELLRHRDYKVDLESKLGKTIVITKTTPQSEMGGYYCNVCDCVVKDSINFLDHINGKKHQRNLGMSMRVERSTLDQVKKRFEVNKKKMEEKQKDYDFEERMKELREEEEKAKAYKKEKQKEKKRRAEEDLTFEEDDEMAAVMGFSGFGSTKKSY
# UniProt Q07955: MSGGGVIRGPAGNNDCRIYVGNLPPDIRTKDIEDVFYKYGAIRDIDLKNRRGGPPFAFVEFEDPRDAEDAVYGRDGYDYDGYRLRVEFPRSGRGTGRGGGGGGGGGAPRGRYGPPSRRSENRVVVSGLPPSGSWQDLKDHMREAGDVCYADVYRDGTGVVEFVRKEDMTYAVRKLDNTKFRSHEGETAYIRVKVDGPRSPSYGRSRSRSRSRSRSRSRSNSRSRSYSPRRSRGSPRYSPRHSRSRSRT
# UniProt Q13242: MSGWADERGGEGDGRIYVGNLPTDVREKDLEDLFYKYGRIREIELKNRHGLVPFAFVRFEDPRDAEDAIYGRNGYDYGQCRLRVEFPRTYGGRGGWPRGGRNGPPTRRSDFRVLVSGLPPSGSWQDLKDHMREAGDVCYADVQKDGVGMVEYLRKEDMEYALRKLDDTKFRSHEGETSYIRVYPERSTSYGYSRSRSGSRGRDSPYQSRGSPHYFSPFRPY
# UniProt O75494: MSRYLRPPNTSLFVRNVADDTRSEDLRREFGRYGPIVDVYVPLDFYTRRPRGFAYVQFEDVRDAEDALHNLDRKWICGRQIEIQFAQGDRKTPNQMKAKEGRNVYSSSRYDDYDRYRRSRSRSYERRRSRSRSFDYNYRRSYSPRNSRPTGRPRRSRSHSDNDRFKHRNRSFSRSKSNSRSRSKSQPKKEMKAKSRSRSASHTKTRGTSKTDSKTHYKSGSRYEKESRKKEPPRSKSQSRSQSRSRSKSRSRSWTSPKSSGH
# Molecular target: T1, SRSF7-GFP fusion product (Serine/arginine-rich splicing factor 7, GFP-tagged at the C-terminus, from a BAC) (human) (UniProt Q16629)
# T1 sequence: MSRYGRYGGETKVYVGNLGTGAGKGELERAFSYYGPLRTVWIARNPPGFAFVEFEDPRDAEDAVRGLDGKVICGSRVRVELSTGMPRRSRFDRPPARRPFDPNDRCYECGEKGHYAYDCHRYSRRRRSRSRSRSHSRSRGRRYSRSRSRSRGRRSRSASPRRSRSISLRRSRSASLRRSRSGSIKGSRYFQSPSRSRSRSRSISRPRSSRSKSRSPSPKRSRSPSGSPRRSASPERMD
# Experiment: affinity purification with mass spectrometry; GFP-Trap agarose beads on lysates of BAC-SRSF7-GFP MDA-MB-231 cells treated with 0.1% DMSO or 1 µM T-025 for 24 h; EBC buffer, benzonase, 300 mM NaCl, 2 h at 4 °C; MDA-MB-231-GFP cells as negative control; on-bead trypsin digest, label-free quantification, phospho (STY) as variable modification, four biological replicates
row,Substance,binding
1,CHD2 (from UniProt O14647 1-1828),binds
2,CLK1 (from UniProt P49759 1-484),binds
3,CLK2 (from UniProt P49760 1-499),binds
4,CLK3 (from UniProt P49761 1-490),binds
5,CLK4 (from UniProt Q9HAZ1 1-481),binds
6,IK (from UniProt Q13123 1-557),binds
7,MFAP1 (from UniProt P55081 1-439),binds
8,POLR1A (from UniProt O95602 1-1720),binds
9,PPIG (from UniProt Q13427 1-754),binds
10,PRPF4B (human (endogenous in MDA-MB-231)),binds
11,PRPF40A (from UniProt O75400 1-957),binds
12,SLTM (from UniProt Q9NWH9 1-1034),binds
13,SRPK1 (from UniProt Q96SB4 1-655),binds
14,SRRM2 (from UniProt Q9UQ35 1-2752),binds
15,ZMAT2 (from UniProt Q96NC0 1-199),binds
16,phosphorylated SRSF1 (from UniProt Q07955 1-248),binds
17,phosphorylated SRSF9 (from UniProt Q13242 1-221),binds
18,phosphorylated SRSF10 (from UniProt O75494 1-262),binds
